The values that follow come from publication PMC7819943, “Rice protein-binding microarrays: a tool to detect cis-acting elements near promoter regions in rice”.

Protein sequences, listed by entry. Tags and fused reporters are not part of them.
UniProt Q0JBA9, entry or part of it: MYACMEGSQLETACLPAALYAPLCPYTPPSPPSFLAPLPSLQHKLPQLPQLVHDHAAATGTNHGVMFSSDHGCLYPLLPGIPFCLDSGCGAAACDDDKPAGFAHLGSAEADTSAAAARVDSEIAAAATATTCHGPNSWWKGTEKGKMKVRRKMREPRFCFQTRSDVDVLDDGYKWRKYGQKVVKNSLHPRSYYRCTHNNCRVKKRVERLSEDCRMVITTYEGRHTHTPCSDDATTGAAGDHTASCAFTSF

Some of the results follow.

The target in this test is OsWRKY34 (Oryza sativa, UniProt Q0JBA9 1-250). As to the kind of experiment: protein-binding microarray (RPBM); PBS, 2% BSA, 51.3 ng/ul salmon testes DNA, 50 uM zinc acetate, 200 nM TF, 25 C, 1 h; high values mean tight binding. The following applies: protein: recombinant; tags: N-terminal polyhistidine and DsRed monomer fusion (pET32a); label: CyDye5-dUTP incorporated in the synthesized complementary strand; 3' TTTTT single-stranded linker to array surface; dsDNA, one strand shown. An outline of the steps: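 Using Ni–NTA, transcription factors fused N-terminally to polyhistidine and DsRed were purified after expression in E. coli BL21-CodonPlus. These were incubated at 200 nM with a blocked, double-stranded custom Agilent array for 1 h at 25 °C in a buffer containing 50 µM zinc acetate, and the array was washed. The binding signal is per-feature fluorescence intensity (arbitrary units) on an Axon 4000B scanner.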
“TCTAGTCAAGGCTTAGCTCCTGTTGTCTTTCGTTTTTCCGCGGAGTCACCTAGTGCAG”: the binding signal is 9910 fluorescence intensity (a.u.).

As for “ATCACCGTCGTTGTATCCAAATTAAGCTCGCGCCGTGGAACGGAGTCACCTAGTGCAG”, the binding signal is 8330 fluorescence intensity (a.u.).

On to “TCCTGCCACCACCACCATGGCACCAGCTCAGCTCAGCTCACGGAGTCACCTAGTGCAG”, for which the binding signal was 8020 fluorescence intensity (a.u.).

As for “GTATGACGCCGTTGACTTTTTGGCCAACGTTTGACCATTCCGGAGTCACCTAGTGCAG”, the binding signal is 41500 fluorescence intensity (a.u.).

With “TCTTTTGGGGACCATCTCATCCCACCCATCCTCAAACAAACGGAGTCACCTAGTGCAG”, the binding signal is 8990 fluorescence intensity (a.u.).

For the sequence “AATCCCATATTTTCCATTATTTTTTGTTTTATTTATGCTCCGGAGTCACCTAGTGCAG”, the binding signal was 10600 fluorescence intensity (a.u.).

Take “CTCTCTCTCGCGTTCCATTGCCACCACTGCATGCGTCACCCGGAGTCACCTAGTGCAG”: the binding signal was 10400 fluorescence intensity (a.u.).

On to “TGATGCAGCTGATCCTCTACGCGATCTACCGGAACCACAACGGAGTCACCTAGTGCAG”, for which the binding signal was 9980 fluorescence intensity (a.u.).

As for “ATTCTTTACTTACATTTAATCAACTTCTACGGCATATTTTCGGAGTCACCTAGTGCAG”, the binding signal was 8890 fluorescence intensity (a.u.).

On to “AGTAGTATATGGGCCCACCGTCAGTCACCTGGAATATCCCCGGAGTCACCTAGTGCAG”, for which the binding signal was 9590 fluorescence intensity (a.u.).

For “TCTCTCTCACGTATGTTGTCTGTCCAGAACTCTTTCTAGTCGGAGTCACCTAGTGCAG”, the binding signal was 9100 fluorescence intensity (a.u.).

As to “CTAGCTGTAGAATTTTACATTTTCCCTGCGGTTTATAACACGGAGTCACCTAGTGCAG”, the binding signal is 8070 fluorescence intensity (a.u.).

With “CTGTTTGCGCTGTACTTTTCCTTCTCGCCGCCAGCGTCGCCGGAGTCACCTAGTGCAG”, the binding signal is 16000 fluorescence intensity (a.u.).

Take “CACCCGGTAGCCTGTTGGGATGCTATACTACTACTACTATCGGAGTCACCTAGTGCAG”: the binding signal is 10000 fluorescence intensity (a.u.).

As to “TGGCACGCACGCGGTTAGTATTTTCTTTTTTCCCGCACTTCGGAGTCACCTAGTGCAG”, the binding signal is 11400 fluorescence intensity (a.u.).

In the case of “GCCAACGTTTGACTGTCCGTTTTATATGAAATTTTTTTATCGGAGTCACCTAGTGCAG”, the binding signal is 9300 fluorescence intensity (a.u.).

For “TAAGCATCCGCCGCTGACGTCAGCCGCCACCTCAGACCGCCGGAGTCACCTAGTGCAG”, the binding signal is 8300 fluorescence intensity (a.u.).

Consider “GCTCAGCTCGTTTTGCGTACATTCTCAATCGATTCTTTTCCGGAGTCACCTAGTGCAG”, for which the binding signal is 15600 fluorescence intensity (a.u.).

For the sequence “AATCTGTGTGTATATAGCTCATCATCCATGGCGGCTACCACGGAGTCACCTAGTGCAG”, the binding signal is 9180 fluorescence intensity (a.u.).

As for “CTGTTTGTTCCCCATGGTTCCCAACTCCCCACCTTGTTTCCGGAGTCACCTAGTGCAG”, the binding signal is 8180 fluorescence intensity (a.u.).

Regarding “ACTCCATCATCAGTACATACTACATAGTCATCAATCATCACGGAGTCACCTAGTGCAG”, the binding signal was 11200 fluorescence intensity (a.u.).

For “TCATGCCCTTGTTTTTTCATGTGATATATCGTTATTTGTCCGGAGTCACCTAGTGCAG”, the binding signal was 15600 fluorescence intensity (a.u.).

“CCTTGTTTTTCTGCTCTGATGTACTTTTGCTGTAACACCTCGGAGTCACCTAGTGCAG”: the binding signal was 8900 fluorescence intensity (a.u.).

“AACATCACCGTCATCAAGGCCACCGTCTCCGCCTCCGCCCCGGAGTCACCTAGTGCAG”: the binding signal is 8280 fluorescence intensity (a.u.).

For “TCCTAACCTGCTTAATTCATAATCTGTTCATTGTTCAAGCCGGAGTCACCTAGTGCAG”, the binding signal is 10100 fluorescence intensity (a.u.).

“TCACCTCATCTCCCGATTCCTCCTCACATCGCCACTCTCCCGGAGTCACCTAGTGCAG”: the binding signal is 11100 fluorescence intensity (a.u.).

“CTCTGCTGTTTCTTACGAACCTCCTCACACCAAGTTGAACCGGAGTCACCTAGTGCAG”: the binding signal is 8550 fluorescence intensity (a.u.).

In the case of “GCGCCCTCCGACTCCGACGGCTTCTTGTTCTCGTTGACGCCGGAGTCACCTAGTGCAG”, the binding signal was 8950 fluorescence intensity (a.u.).

Turning to “AATAGAGGGGAGGGCAAAGGCAAATACACGGGGAAATACACGGAGTCACCTAGTGCAG”, the binding signal is 8420 fluorescence intensity (a.u.).

As to “ACACTAATTCTCTAGCACCAATGTTATGTTTGAGTTATAACGGAGTCACCTAGTGCAG”, the binding signal was 8190 fluorescence intensity (a.u.).

Turning to “AAAATTGTGAGTGTTCCTTTCTTCGTCTCTCGCCTTGTACCGGAGTCACCTAGTGCAG”, the binding signal is 12000 fluorescence intensity (a.u.).

Regarding “AGGGTTTCGTGTTTTCTTTTGCCTCGGTTGAGGAGTTCTTCGGAGTCACCTAGTGCAG”, the binding signal was 10000 fluorescence intensity (a.u.).

Consider “CCCATCGCCATCACCATCATATCATCCCCTCTCCTCCTCTCGGAGTCACCTAGTGCAG”, for which the binding signal was 8860 fluorescence intensity (a.u.).

Regarding “CTGCGCACATATATCTTTATCTTTACTATTATATCTCTATCGGAGTCACCTAGTGCAG”, the binding signal was 9190 fluorescence intensity (a.u.).

As for “AGTGACCTCAATTGATCATTCCCTCATCCTTTAGTCAAGCCGGAGTCACCTAGTGCAG”, the binding signal is 8920 fluorescence intensity (a.u.).

In the case of “TCTGAAGTTGCGTTTCTTCGGATTGTATAGCGCCCGTCTCCGGAGTCACCTAGTGCAG”, the binding signal is 8650 fluorescence intensity (a.u.).

Turning to “TTGGTTAGACCTCTGTTTTTCTCCCACATAATCCCTTTATCGGAGTCACCTAGTGCAG”, the binding signal is 9180 fluorescence intensity (a.u.).

As for “GCATTTTGGAGTCCGTGCTGCAGCTGGCTATATATCTGTACGGAGTCACCTAGTGCAG”, the binding signal is 8560 fluorescence intensity (a.u.).

Take “CCCCGCGCTTTTATTACTAGTAGTACTTCTCCTAGCGGCACGGAGTCACCTAGTGCAG”: the binding signal was 9010 fluorescence intensity (a.u.).

Regarding “TCACTGCCCGTCTAGCCATGCTATGCTTGGGCTGCTACCCCGGAGTCACCTAGTGCAG”, the binding signal is 8060 fluorescence intensity (a.u.).

For the sequence “TCAAGTTGTCTGACCATATCATATATCATCATGCATGCACCGGAGTCACCTAGTGCAG”, the binding signal is 9480 fluorescence intensity (a.u.).

Turning to “CGCGGCGCCACTATAAATTGGCGCGCCAATTCCTTTCCTTCGGAGTCACCTAGTGCAG”, the binding signal was 8460 fluorescence intensity (a.u.).

In the case of “GTGTGTGGATTAGTTGGAAGGATCAGTGCAATTATTGACTCGGAGTCACCTAGTGCAG”, the binding signal was 9670 fluorescence intensity (a.u.).

For the sequence “GTCTTTTCTATAATATACCGGTAAATTTATTAATTATTTTCGGAGTCACCTAGTGCAG”, the binding signal is 8220 fluorescence intensity (a.u.).

As to “TGACTTGGAAGTACTTTAGCATTGTCTTATCTCTCTCTATCGGAGTCACCTAGTGCAG”, the binding signal is 9050 fluorescence intensity (a.u.).

On to “TTTTCATCCACTAGCTCTCTACAGCTTATTATATACTTCCCGGAGTCACCTAGTGCAG”, for which the binding signal was 9030 fluorescence intensity (a.u.).

Take “TCTCTTCATCTTCTGATCTGTGTTGGTGTTGCAAAAGAGACGGAGTCACCTAGTGCAG”: the binding signal was 10400 fluorescence intensity (a.u.).

With “ATCCATCTTCTTCTTCTTTCTTTCTTTTCTTCCTCTTCTTCGGAGTCACCTAGTGCAG”, the binding signal is 10400 fluorescence intensity (a.u.).

Take “GCCAATCACTGTACTTCTATTACAATGCACATGCATGCGCCGGAGTCACCTAGTGCAG”: the binding signal was 8310 fluorescence intensity (a.u.).

Consider “ACTATTCACGTTTAACATTTGACCGTTTATCTTATTTGAACGGAGTCACCTAGTGCAG”, for which the binding signal was 9200 fluorescence intensity (a.u.).

Take “GTTTTGATTATTTGACATCCTAGTCCACTTTCATATACTTCGGAGTCACCTAGTGCAG”: the binding signal was 9910 fluorescence intensity (a.u.).

For the sequence “AGTGCGTTTCGTATCCCCTTTTCTCCAGTGACCTGCGGTACGGAGTCACCTAGTGCAG”, the binding signal was 8960 fluorescence intensity (a.u.).

Regarding “AGCAGAATCTAGCATGCACGTTTTTTTTATTTTCCTTTTACGGAGTCACCTAGTGCAG”, the binding signal was 8580 fluorescence intensity (a.u.).

As for “GCTTCTATTATTTTGGACCTTCTGAAATTTCAGTCTGTCTCGGAGTCACCTAGTGCAG”, the binding signal was 11700 fluorescence intensity (a.u.).
